No constants are given. Whether binding was seen depends on the method and setting. Some entries that bind do so weakly or less than the wild type.
Key:
[1] = molecular target: human CD3 on cells (human) (UniProt P07766); assay: flow cytometry on CHO-CD3-TCR cells
[2] = molecular target: human CD3 on cells (human) (UniProt P07766); assay: flow cytometry on CHO-CD3-TCR cells, MFI
[3] = molecular target: human CD3 on cells (human) (UniProt P07766); assay: flow cytometry on human CD3-expressing Jurkat T cells

Protein sequences, listed by entry. Tags and fused reporters are not part of them. Lines headed by an entry give the natural chain unless they say otherwise; changes in a name come on top.
UniProt P07766: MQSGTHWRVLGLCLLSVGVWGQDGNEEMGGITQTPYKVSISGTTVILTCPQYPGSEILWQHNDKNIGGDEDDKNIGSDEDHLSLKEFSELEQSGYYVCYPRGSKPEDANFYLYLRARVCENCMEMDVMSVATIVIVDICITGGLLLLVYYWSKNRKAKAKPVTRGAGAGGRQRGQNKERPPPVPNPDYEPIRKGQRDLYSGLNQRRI

Measured: binding

B1: HuEM0006-01-24 (antibody, V domains shown)
VH: EVQLVQSGAEVKKPGASVKVSCKASGFSFTNYYVHWMRQAPGQGLEWMGWISPGSDNTKYNEKFKGRVTMTRDTSISTAYMELSRLRSDDTAVYYCARDDYGNYYFDYWGQGTTVTVSS
VL: DIVMTQSPDSLAVSLGERATINCKSSQSLLNARTRKNYLAWYQQKPGQPPKLLIYWASTRESGVPDRFSGSGSGTDFTLTISSLQAEDVAVYYCKQSYILRTFGGGTKVEIK
binds: [1] | [2] | [3]

B2: HuEM0006-01-27 (antibody, V domains shown)
VH: EVQLVQSGAEVKKPGASVKVSCKASGFSFTNYYVHWMRQAPGQGLEWIGWISPGSDNTKYNEKFKGRVTLTADTSISTAYMELSRLRSDDTAVYYCARDDYGNYYFDYWGQGTTVTVSS
VL: DIVMTQSPDSLAVSLGERATINCKSSQSLLNARTRKNYLAWYQQKPGQPPKLLIYWASTRESGVPDRFSGSGSGTDFTLTISSLQAEDVAVYYCKQSYILRTFGGGTKVEIK
binds: [1] | [2] | [3]
